{
  "source": "patent US20170107185A1",
  "about": "“SUBSTITUTED [1,2,4]TRIAZOLE AND IMIDAZOLE COMPOUNDS AS FUNGICIDES” (BASF SE, priority 2014, published 2017)",
  "key": {"[1]": {"system": "Phakopsora pachyrhizi", "assay": "G3 Curative control of soy bean rust on soy beans (Phakpa K2)", "format": "in vivo, Phakopsora pachyrhizi on soy bean", "conditions": "150 ppm, curative spray after inoculation, assessed after 14 days; untreated plants 100% infected"}, "[2]": {"system": "Alternaria solani", "conditions": "150 ppm, sprayed one day before inoculation, assessed after 5 days; untreated plants 80% infected"}, "[3]": {"system": "Septoria tritici", "assay": "M3 Activity against leaf blotch on wheat caused by Septoria tritici (Septtr)", "format": "cell-based", "conditions": "31 ppm, 405 nm, 7 days after inoculation; compound-free control 100%"}, "[4]": {"system": "Botrytis cinerea", "assay": "G1 Preventative fungicidal control of Botrytis cinerea on leaves of green pepper (Botrci P1)", "format": "in vivo", "conditions": "150 ppm, sprayed one day before inoculation, assessed after 5 days; untreated plants 80% infected"}},
  "note": "Some results were stated once for a whole list of compounds, not compound by compound.",
  "data": [
    {"compound": "OC(Cn1cncn1)(c1ccc(-c2ccccc2)cc1Cl)C1CC1", "note": "(stereo not shown) [Compound I-1]", "values": [
      {"measurement": "infection (% diseased leaf area)", "setting": "[1]", "value": "≤ 3", "unit": "%"},
      {"measurement": "infection (% diseased leaf area)", "setting": "[2]", "value": "≤ 15", "unit": "%"},
      {"measurement": "growth (relative growth in % of the pathogen)", "setting": "[3]", "value": "≤ 4", "unit": "%"},
      {"measurement": "infection (% diseased leaf area)", "setting": "[4]", "value": "≤ 7", "unit": "%"}
    ]}
  ]
}
